From article PMC5435352
Results are given in words; binding and its absence hold for the method and conditions named. Binding seen in cells or lysates may run through a third protein. These calls come from enrichment with a bait or labelling near it, and not all partners need be listed.

Target: EVA71 3D viral polymerase (enterovirus A71 (strain 4643/TW/98))
Assay: affinity purification with mass spectrometry; […]; 50 mM Tris-HCl pH 7.4, 150 mM NaCl, 1% Triton X-100), […]

B1: Interleukin enhancer binding factor 3 (protein, UniProt Q12906 1-894)
chain: MRPMRIFVNDDRHVMAKHSSVYPTQEELEAVQNMVSHTERALKAVSDWIDEQEKGSSEQAESDNMDVPPEDDSKEGAGEQKTEHMTRTLRGVMRVGLVAKGLLLKGDLDLELVLLCKEKPTTALLDKVADNLAIQLAAVTEDKYEILQSVDDAAIVIKNTKEPPLSLTIHLTSPVVREEMEKVLAGETLSVNDPPDVLDRQKCLAALASLRHAKWFQARANGLKSCVIVIRVLRDLCTRVPTWGPLRGWPLELLCEKSIGTANRPMGAGEALRRVLECLASGIVMPDGSGIYDPCEKEATDAIGHLDRQQREDITQSAQHALRLAAFGQLHKVLGMDPLPSKMPKKPKNENPVDYTVQIPPSTTYAITPMKRPMEEDGEEKSPSKKKKKIQKKEEKAEPPQAMNALMRLNQLKPGLQYKLVSQTGPVHAPIFTMSVEVDGNSFEASGPSKKTAKLHVAVKVLQDMGLPTGAEGRDSSKGEDSAEETEAKPAVVAPAPVVEAVSTPSAAFPSDATAEQGPILTKHGKNPVMELNEKRRGLKYELISETGGSHDKRFVMEVEVDGQKFQGAGSNKKVAKAYAALAALEKLFPDTPLALDANKKKRAPVPVRGGPKFAAKPHNPGFGMGGPMHNEVPPPPNLRGRGRGGSIRGRGRGRGFGGANHGGYMNAGAGYGSYGYGGNSATAGYSQFYSNGGHSGNASGGGGGGGGGSSGYGSYYQGDNYNSPVPPKHAGKKQPHGGQQKPSYGSGYQSHQGQQQSYNQSPYSNYGPPQGKQKGYNHGQGSYSYSNSYNSPGGGGGSDYNYESKFNYSGSGGRSGGNSYGSGGASYNPGSHGGYGGGSGGGSSYQGKQGGYSQSNYNSPGSGQNYSGPPSSYQSSQGGYGRNADHSMNYQYR
binding: binds

B2: Lamina-associated polypeptide 2, isoform alpha (protein, UniProt P42166 1-694)
chain: MPEFLEDPSVLTKDKLKSELVANNVTLPAGEQRKDVYVQLYLQHLTARNRPPLPAGTNSKGPPDFSSDEEREPTPVLGSGAAAAGRSRAAVGRKATKKTDKPRQEDKDDLDVTELTNEDLLDQLVKYGVNPGPIVGTTRKLYEKKLLKLREQGTESRSSTPLPTISSSAENTRQNGSNDSDRYSDNEEGKKKEHKKVKSTRDIVPFSELGTTPSGGGFFQGISFPEISTRPPLGSTELQAAKKVHTSKGDLPREPLVATNLPGRGQLQKLASERNLFISCKSSHDRCLEKSSSSSSQPEHSAMLVSTAASPSLIKETTTGYYKDIVENICGREKSGIQPLCPERSHISDQSPLSSKRKALEESESSQLISPPLAQAIRDYVNSLLVQGGVGSLPGTSNSMPPLDVENIQKRIDQSKFQETEFLSPPRKVPRLSEKSVEERDSGSFVAFQNIPGSELMSSFAKTVVSHSLTTLGLEVAKQSQHDKIDASELSFPFHESILKVIEEEWQQVDRQLPSLACKYPVSSREATQILSVPKVDDEILGFISEATPLGGIQAASTESCNQQLDLALCRAYEAAASALQIATHTAFVAKAMQADISQAAQILSSDPSRTHQALGILSKTYDAASYICEAAFDEVKMAAHTMGNATVGRRYLWLKDCKINLASKNKLASTPFKGGTLFGGEVCKVIKKRGNKH
binding: binds
